Laboratory results from PubChem BioAssay AID504467 (National Center for Advancing Translational Sciences (NCATS), 2011).
The campaign covered roughly 330,000 compounds. About 7,700 (2.3%) were called active. Inconclusive results, whose numbers are uncertain, are shown with a selection of clear calls. Calls follow the shape of the dose curve; as a rule, active = well fitted inhibition curve with a large enough effect; inconclusive = small, poorly fitted or top-dose-only effect, or effect the other way; inactive = flat fitted curve, though single readings scatter. A potency beside an inconclusive call is a rough fit, not a confirmed value.

assay: qHTS screen for small molecules that inhibit ELG1-dependent DNA repair in human embryonic kidney (HEK293T) cells expressing luciferase-tagged ELG1; conditions: HEK293T ELG1-luciferase reporter, luminescence, 16 h, DNA damage induced by 5-fluorouridine; activity change, negative = inhibition: at 46.1 µM (top of the series); also: nearly all actives have a fitted effect of over 55% in size
In short: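 Overnight (16 hr) co-exposure of 2,000 cells/well to 5-fluorouridine and compound at 37 °C preceded detection. Luciferase was quantified via ONE-Glo luminescence; loss of signal denotes inhibition.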
% is scaled to controls: 0 for no effect and ±100 for the full control effect; potency is read from the fitted curve at half-maximal effect.

Structure (SMILES) | Potency | activity change, negative = inhibition
N/C(Cc1cccs1)=N\OC(=O)COc1ccccc1 | inconclusive: 23.1 µM [activator, single point] | –
CC(C)N(C(=S)NCc1ccccc1)c1ccccc1 | – | inactive: -4.47%
CCc1cc(C(=O)Cc2cnn(-c3ccccc3)c2)c(O)cc1O | – | inactive: -2.16%
NC(=O)C1=CN(Cc2ccc(Cl)cc2)CCC1C(F)(F)F (stereo not given) | inconclusive: 20.6 µM [inhibitor, single point] | –
O=C(NC1CCCCC1)C1CCC(=O)N(Cc2cccc(C(F)(F)F)c2)C1 (stereo not given) | – | inactive: 0.209%
Cc1ccc(C(=O)N(CCc2ccccc2)Cc2ccccc2)cc1S(=O)(=O)N1CCCCC1 | inconclusive: 32.6 µM [inhibitor, single point] | –
CC(C)(C)C(=O)N1CCN(c2ccc(NC(=O)c3ccc4c(c3)OCCO4)cc2)CC1 | active: 16.4 µM | –
Cc1ccc(C(=O)Nc2ccc(C(F)(F)F)n(C)c2=O)cc1 | inconclusive: 3.26 µM [activator, full curve] | –
O=C(Nc1nccs1)c1ccc(Br)o1 | inconclusive: 16.4 µM [activator, partial curve] | –
CCN(CC(=O)Nc1c(F)cccc1F)C(=O)c1cccc(-n2cnnn2)c1 | inconclusive: 18.3 µM [activator, single point] | –
CC1CC(C)CN(C(=O)C(C)N(C)CC(=O)Nc2ccc(Cl)cc2)C1 (stereo not given) | inconclusive: 18.3 µM [inhibitor, partial curve, poor fit] | –
CCCCC(=O)NC(=S)Nc1cccc(C(=O)O)c1 | inconclusive: 18.3 µM [activator, partial curve] | –
CC1=C(C(=O)O)N2C(=O)C(NC(=O)c3ccn(C)n3)C2SC1 (stereo not given) | – | inactive: 2.8%
COc1ccc2c(C)c(CC(=O)N3CCN(C(=O)C4COc5ccccc5O4)CC3)c(=O)oc2c1 (stereo not given) | active: 23.1 µM | –
CCn1cc(CN2CCCC(CO)(Cc3ccc(F)cc3)C2)c2ccccc21 (stereo not given) | – | inactive: -4.65%
CN(c1ccccc1)S(=O)(=O)c1cccc(NC(=O)CC(C)(C)C)c1 | inconclusive: 18.4 µM [inhibitor, single point] | –
OCCn1nc(-c2ccccc2)cc1-c1ccccc1 | – | inactive: 2.05%
O=C(O)CS/C(=C\c1ccc(F)cc1)c1nc2ccccc2s1 | inconclusive: 29.1 µM [activator, single point] | –
COC(=O)NC(=S)Nc1ccc(Oc2ccc(Cl)cc2Cl)c(Cl)c1 | – | inactive: -26%
CCOC(=O)c1c(-c2ccccc2)nnn1-c1nc(OC)nc(N2CCOCC2)n1 | – | inactive: -8.58%
N/C(=N\OC(=O)c1ccccc1Br)c1cccc([N+](=O)[O-])c1 | inconclusive: 2.31 µM [activator, full curve] | –
CN1CCN(C(=S)NC(=O)c2ccc(Cl)cc2)CC1 | – | inactive: -5.63%
COc1cc(OC)cc(C(=O)Nc2nc(CC(=O)NCCc3ccccc3)cs2)c1 | inconclusive: 23.1 µM [inhibitor, partial curve, poor fit] | –
CCC(=O)Nc1ccc2c(c1)N(C(C)=O)c1ccccc1CC2 | – | inactive: -6.59%
COc1ccc(C(=O)COC(=O)/C=C/c2ccccc2)c(OC)c1 | inconclusive: 25.9 µM [activator, single point] | –

A draw from above in order of length of the SMILES, rising:
Structure (SMILES) | Potency | activity change, negative = inhibition
OCCn1nc(-c2ccccc2)cc1-c1ccccc1 | – | inactive: 2.05%
O=C(O)CS/C(=C\c1ccc(F)cc1)c1nc2ccccc2s1 | inconclusive: 29.1 µM [activator, single point] | –
CCOC(=O)c1c(-c2ccccc2)nnn1-c1nc(OC)nc(N2CCOCC2)n1 | – | inactive: -8.58%

Further results.

Structure (SMILES) | Potency | activity change, negative = inhibition
CC(=O)NC(NC(=S)Nc1ccccc1Br)C(Cl)(Cl)Cl (stereo not given) | – | inactive: 15.8%
COc1ccccc1NS(=O)(=O)c1cccc(NC(=O)c2ccc3ccccc3n2)c1 | active: 18.4 µM | –
COc1cc(Cl)cc(/C=C/c2ccc3cccc(O)c3n2)c1OC | – | inactive: 3.26%
CC(C)(C)c1nnc(NC(=O)c2ccc(Cl)nc2)s1 | inconclusive: 20.6 µM [activator, partial curve] | –
Cc1ccc(C(=O)NC(=S)Nc2ccc(S(=O)(=O)N(C)c3ccccc3)cc2)cc1 | inconclusive: 20.6 µM [inhibitor, partial curve] | –
O=C(c1ccncc1)N1N=C(c2ccc(Cl)cc2)CC1c1ccccc1O (stereo not given) | inconclusive: 18.3 µM [activator, single point] | –
COc1cc(CN(CCN(C)C)Cc2ccccc2)ccc1OCc1ccccc1 | – | inactive: 9.11%
Cc1cc(C)c(CN2CCN(C(=O)Cn3cnc(C(=O)Nc4ccc(C)c(C)c4)n3)CC2)c(C)c1 | – | inactive: -29.2%
COC(=O)CNC(c1ccccc1)c1cc(C)ccc1NC(=O)CNC(=O)OCc1ccccc1 (stereo not given) | – | inactive: -4.1%
O=C(C[n+]1cc(-c2ccccc2)n2c1CCCCC2)c1ccc(Br)cc1 | inconclusive: 14.6 µM [inhibitor, partial curve] | –
COCCn1c(-c2cccc(Br)c2)nc2c(c(=O)c3ccccc3n2C)c1=O | inconclusive: 23.1 µM [inhibitor, single point] | –
COc1ccccc1N1CCN(C(=O)COc2cc(C)ccc2C)CC1 | – | inactive: -24.7%
CCCCC(=O)Nc1ccc(C(=O)NNC(=O)c2ccc(C)c(Br)c2)cc1 | – | inactive: 15.8%
O=C(Nc1sc2c(c1C(=O)c1ccccc1)CCCC2)c1cccnc1 | – | inactive: -27.8%
Cc1c(/C=N/O)c2ccccn2c1C(=O)c1ccc(F)cc1 | inconclusive: 13 µM [inhibitor, partial curve, poor fit] | –
CCc1nc(C)cn1S(=O)(=O)c1cc(Br)ccc1OC | inconclusive: 0.651 µM [activator, partial curve] | –
Cc1cc(C)c2c(=O)[nH]c(=O)n(Cc3ccccc3)c2n1 | inconclusive: 13 µM [activator, partial curve] | –
CCOC(=O)c1c(C)nn(-c2ccc(NC(=O)c3cccs3)cc2)c1C | inconclusive: 20.6 µM [inhibitor, single point] | –
Cc1ccc(SCCN2CCN(C)CCC2=O)cc1 | inconclusive: 18.3 µM [activator, partial curve] | –
CC(=O)N1CCCc2cc(S(=O)(=O)N3CCCC(C(=O)NCc4ccc(Cl)cc4)C3)ccc21 (stereo not given) | inconclusive: 10.3 µM [inhibitor, partial curve] | –
Cc1ccc([N+](=O)[O-])cc1NC(=O)c1ccc2c(c1)OCO2 | – | inactive: -2.21%
COc1cccc(Oc2ncnc(N)c2[N+](=O)[O-])c1 | – | inactive: -13.9%
COc1ccc(CN2C(=O)c3cccnc3C2=O)cc1S(=O)(=O)NC(C)C | – | inactive: 19.7%
COc1ccc(CCNC(=O)C(=O)NCC2OCCN2S(=O)(=O)c2ccccc2)cc1 (stereo not given) | – | inactive: -4.02%
Clc1ccc(C2=NNC(=NCC3CCCO3)SC2)cc1 (stereo not given) | inconclusive: 10.3 µM [activator, partial curve] | –

Structure (SMILES) | Potency | activity change, negative = inhibition
CCOc1ccc(Nc2nc(Cc3nnc(SCC(=O)c4ccc(C)cc4)o3)cs2)cc1 | inconclusive: 16.4 µM [inhibitor, single point] | –
CC1c2ccsc2CCN1C(=O)NC(=O)c1ccc(Cl)cc1 (stereo not given) | – | inactive: 4.73%
CCOc1ccc(/C=C2\SC(N3CCCCC3)=NC2=O)cc1 | – | inactive: 11.3%
CCOc1ccc(C(=O)NN2C(=S)NC(C)(C)C=C2C)cc1 | inconclusive: 23.1 µM [activator, partial curve] | –
CNC(=O)CSc1cnc2ccccc2n1 | inconclusive: 20.6 µM [activator, single point] | –
CNC(=O)C(C)Sc1ccc(S(=O)(=O)N2CCOCC2)cn1 (stereo not given) | inconclusive: 25.9 µM [activator, single point] | –
CCC1CCCCN1S(=O)(=O)c1ccc(NC(=O)C2CCN(C(=O)c3ccco3)CC2)cc1 (stereo not given) | inconclusive: 29.1 µM [inhibitor, single point] | –
CC1CN(CCCSc2ccc(Cl)cc2)CC(C)O1 (stereo not given) | inconclusive: 6.51 µM [inhibitor, single point] | –
O=C(N=C1N=C2C=CC(Br)=CN2Cc2ccccc21)c1ccc([N+](=O)[O-])cc1[N+](=O)[O-] | inconclusive: 9.2 µM [activator, partial curve] | –
COc1ccc(-c2cn[nH]c2-c2ccc(OCc3ccc(F)cc3)cc2O)cc1OC | inconclusive: 16.4 µM [inhibitor, partial curve] | –
COc1ccc(/C=C2\SC(=S)N(C(C(=O)O)c3ccccc3)C2=O)c(OC)c1 (stereo not given) | inconclusive: 18.3 µM [activator, partial curve, poor fit] | –
CC(C)(C)c1ccc(CN2C3=NCCCN3c3ccccc32)cc1 | – | inactive: -22.4%
N#Cc1cccc2c1-c1ccccc1/C2=N/NC(N)=O | – | inactive: -21.9%
COc1ccccc1NC(=O)C(C)OC(=O)C(C)SCC(=O)Nc1ccc(C)cc1 (stereo not given) | – | inactive: -4.87%
c1ccc2nc(-c3nc4ccccc4o3)ccc2c1 | – | inconclusive: 28.4% [activator]
Cc1cc(C(=O)Nc2ccon2)cs1 | inconclusive: 29.1 µM [activator, single point] | –
O=S(=O)(c1ccc(F)cc1)N1CCN(CCOc2ccccc2)CC1 | inconclusive: 25.9 µM [inhibitor, partial curve, poor fit] | –
CCOc1cc(/C=N/Nc2ncnc(Cl)c2N)ccc1O | inconclusive: 18.4 µM [activator, single point] | –
COc1ccc(-c2c[n+](CC(=O)c3ccccc3)c3n2CCCCC3)cc1 | active: 14.6 µM | –
Nc1nc(CN2CCN(Cc3ccccc3)CC2)nc(N2CCCc3ccccc32)n1 | – | inactive: -2.63%
O=C(CSc1ccc(Cl)cc1)c1ccco1 | inconclusive: 23.1 µM [activator, single point] | –
Cc1nn(C)c(Cl)c1S(=O)(=O)N1CCC(CO)(CCc2ccccc2)CC1 | – | inactive: -23.7%
O=C(Nc1cc2c(cc1Br)OCCO2)c1ccco1 | inconclusive: 16.4 µM [activator, partial curve] | –
COC(=O)[C@@H]1C[C@@]2(O)[C@H](O)[C@H](O)[C@H](O)C[C@H]2N1Cc1ccc(C)s1 | inconclusive: 16.4 µM [activator, partial curve, poor fit] | –
CC1CN(S(=O)(=O)c2cccc(C(=O)Nc3ccc(S(=O)(=O)NC4=NCCCCC4)cc3)c2)CC(C)O1 (stereo not given) | – | inactive: -3.2%
